Values from PubChem BioAssay AID1259405 (NCATS, 2018).
Shown is an unselected part of about 50,000 reagents. Of all reagents, about 4,000 (8%) are marked active. 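Mouse siRNA library applied to hamster cells; one well for each siRNA.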 A number with no mark means an inactive call. No sequences are given here.

Purpose: 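Mouse-designed siRNAs used to find CHO productivity engineering targets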 (primary screen)
Cell system: Chinese hamster CHO-K1 ovary cells with stable secreted eGFP expression
Knock-down reagent: single siRNA against mouse genes, 0.8 pmol siRNA per well (2 µl of 400 nM stock)
Timing: 3 days
Read-out: 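Per-well intracellular GFP measured by laser scanning cytometry, plus viability from ATP luminescence, each relative to plate median of non-targeting control wells, in %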
Direction: GFP, % of control: higher = more GFP per well, higher productivity; viability (ATP), % of control: higher = more viable cells (more ATP)
Rule for the call: 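a knock-down is called active if GFP reaches 120% or more of non-targeting control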

Mip (major intrinsic protein of lens fiber) [SID363574787] → GFP, % of control: 65.6; viability (ATP), % of control: 88.1
Mip (major intrinsic protein of lens fiber) [SID363575843] → GFP, % of control: 53.2; viability (ATP), % of control: 72.4
Mip (major intrinsic protein of lens fiber) [SID363580419] → GFP, % of control: 84.2; viability (ATP), % of control: 75.8
Dlg4 (discs large MAGUK scaffold protein 4) [SID363581965] → GFP, % of control: 87.4; viability (ATP), % of control: 101
Dlg4 (discs large MAGUK scaffold protein 4) [SID363589459] → GFP, % of control: 114; viability (ATP), % of control: 80.7
Ppargc1b [SID363584483] → GFP, % of control: 65.3; viability (ATP), % of control: 80.3
Ppargc1b [SID363589513] → GFP, % of control: 132 (active); viability (ATP), % of control: 119
Arg2 (arginase type II) [SID363569876] → GFP, % of control: 84.3; viability (ATP), % of control: 47.3
Arg2 (arginase type II) [SID363576916] → GFP, % of control: 124 (active); viability (ATP), % of control: 103
Arg2 (arginase type II) [SID363578324] → GFP, % of control: 102; viability (ATP), % of control: 110
Rnaseh2a (ribonuclease H2, large subunit) [SID363569640] → GFP, % of control: 96.9; viability (ATP), % of control: 110
Rnaseh2a (ribonuclease H2, large subunit) [SID363577384] → GFP, % of control: 47.3; viability (ATP), % of control: 57.3
Rnaseh2a (ribonuclease H2, large subunit) [SID363578792] → GFP, % of control: 63.5; viability (ATP), % of control: 55.2
Nedd4 [SID363541894] → GFP, % of control: 74.8; viability (ATP), % of control: 94.4
Nedd4 [SID363553486] → GFP, % of control: 59.4; viability (ATP), % of control: 78.1
Nedd4 [SID363566810] → GFP, % of control: 59.1; viability (ATP), % of control: 67.5

An excerpt from above, limited to “viability (ATP), % of control”.
Ppargc1b [SID363584483]: 80.3
Ppargc1b [SID363589513]: 119 (active)
